Measured values as given in patent publication US20240238263A1, “USE OF PYRIDONE DERIVATIVE CONTAINING HETEROATOM CYCLOBUTANE SUBSTITUENT” (GUANGZHOU JOYO PHARMATECH CO., LTD, priority 2021, published 2024).

System: diabetic rats
Assay: Fasting blood glucose monitoring in STZ-diabetic rats with dorsal skin wound, topical administration
Type: in vivo, Wistar rats
Conditions: GeneTime 0.04 mL topical twice daily, mean±S.E.M.
Experimental: In this study, 50 STZ-diabetic rats were used to simulate Type 1 diabetes, with an additional 8 normal rats serving as the control group (normal blank gel control group (without STZ)). The method for modeling the STZ-diabetic rat is as follows: Male Wistar rats were weighed and then intraperitoneally injected with Streptozotocin (STZ, freshly prepared, dissolved in 0.1 M citrate buffer (pH 4.5)) at a dosage of 80 mg/kg. STZ was intraperitoneally injected twice in total, with a 5-day interval between injections. Three days after the second STZ injection, rats with fasting blood glucose levels greater than 250 mg/dl were defined as diabetic model rats. Studies on skin wound healing could be conducted from 1 to 8 weeks after the successful establishment of the diabetic rat model. • 2.
All experimental groups were topically administered. Before administering the medication, wounds were rinsed with physiological saline and any residual moisture was absorbed with a sterile cotton swab. Then, the medication was applied. […] Efficacy assessment • 1) Blood glucose monitoring: Blood samples were obtained from all animals via tail vein sampling, and fasting blood glucose levels were measured on days 0/9/18 using a glucometer. • 2) Evaluation of wound closure:
Experimental data were expressed as the mean±standard error of the mean (mean±S.E.M.). […]

B1: GeneTime: Recombinant Human Epidermal Growth Factor External Solution, 2000 IU/mL; positive control (protein, UniProt P01133 23-1207, looked up)
Pro-epidermal growth factor: PQHWSCPEGTLAGNGNSTCVGPAPFLIFSHGNSIFRIDTEGTNYEQLVVDAGVSVIMDFHYNEKRIYWVDLERQLLQRVFLNGSRQERVCNIEKNVSGMAINWINEEVIWSNQQEGIITVTDMKGNNSHILLSALKYPANVAVDPVERFIFWSSEVAGSLYRADLDGVGVKALLETSEKITAVSLDVLDKRLFWIQYNREGSNSLICSCDYDGGSVHISKHPTQHNLFAMSLFGDRIFYSTWKMKTIWIANKHTGKDMVRINLHSSFVPLGELKVVHPLAQPKAEDDTWEPEQKLCKLRKGNCSSTVCGQDLQSHLCMCAEGYALSRDRKYCEDVNECAFWNHGCTLGCKNTPGSYYCTCPVGFVLLPDGKRCHQLVSCPRNVSECSHDCVLTSEGPLCFCPEGSVLERDGKTCSGCSSPDNGGCSQLCVPLSPVSWECDCFPGYDLQLDEKSCAASGPQPFLLFANSQDIRHMHFDGTDYGTLLSQQMGMVYALDHDPVENKIYFAHTALKWIERANMDGSQRERLIEEGVDVPEGLAVDWIGRRFYWTDRGKSLIGRSDLNGKRSKIITKENISQPRGIAVHPMAKRLFWTDTGINPRIESSSLQGLGRLVIASSDLIWPSGITIDFLTDKLYWCDAKQSVIEMANLDGSKRRRLTQNDVGHPFAVAVFEDYVWFSDWAMPSVMRVNKRTGKDRVRLQGSMLKPSSLVVVHPLAKPGADPCLYQNGGCEHICKKRLGTAWCSCREGFMKASDGKTCLALDGHQLLAGGEVDLKNQVTPLDILSKTRVSEDNITESQHMLVAEIMVSDQDDCAPVGCSMYARCISEGEDATCQCLKGFAGDGKLCSDIDECEMGVPVCPPASSKCINTEGGYVCRCSEGYQGDGIHCLDIDECQLGEHSCGENASCTNTEGGYTCMCAGRLSEPGLICPDSTPPPHLREDDHHYSVRNSDSECPLSHDGYCLHDGVCMYIEALDKYACNCVVGYIGERCQYRDLKWWELRHAGHGQQQKVIVVAVCVVVLVMLLLLSLWGAHYYRTQKLLSKNPKNPYEESSRDVRSRRPADTEDGMSSCPQPWFVVIKEHQDLKNGGQPVAGEDGQAADGSMQPTSWRQEPQLCGMGTEQGCWIPVSSDKGSCPQVMERSFHMPSYGTQTLEGGVEKPHSLLSANPLWQQRALDPPHQMELTQ
modifications: Pro-epidermal growth factor
notes: Recombinant Human Epidermal Growth Factor External Solution, 2000 IU/mL; positive control
For B1, which Fasting blood glucose (Day 9) is on record?
Its Fasting blood glucose is 451.8 ± 11.33 mg/dL.

And the Fasting blood glucose (Day 18)?
The Fasting blood glucose was 464.04 ± 3.71 mg/dL.
